For eight targets, log2 fold change results are on record in the supplement of paper PMC12819154, “High-throughput peptide-centric local stability assay extends protein–ligand identification to membrane proteins, tissues and bacteria” (Nature Structural & Molecular Biology, 2025).

Chains of the proteins cited; added tags and fusions are not shown. Lines headed by an entry give the natural chain unless they say otherwise; changes in a name come on top.
UniProt Q8WV37: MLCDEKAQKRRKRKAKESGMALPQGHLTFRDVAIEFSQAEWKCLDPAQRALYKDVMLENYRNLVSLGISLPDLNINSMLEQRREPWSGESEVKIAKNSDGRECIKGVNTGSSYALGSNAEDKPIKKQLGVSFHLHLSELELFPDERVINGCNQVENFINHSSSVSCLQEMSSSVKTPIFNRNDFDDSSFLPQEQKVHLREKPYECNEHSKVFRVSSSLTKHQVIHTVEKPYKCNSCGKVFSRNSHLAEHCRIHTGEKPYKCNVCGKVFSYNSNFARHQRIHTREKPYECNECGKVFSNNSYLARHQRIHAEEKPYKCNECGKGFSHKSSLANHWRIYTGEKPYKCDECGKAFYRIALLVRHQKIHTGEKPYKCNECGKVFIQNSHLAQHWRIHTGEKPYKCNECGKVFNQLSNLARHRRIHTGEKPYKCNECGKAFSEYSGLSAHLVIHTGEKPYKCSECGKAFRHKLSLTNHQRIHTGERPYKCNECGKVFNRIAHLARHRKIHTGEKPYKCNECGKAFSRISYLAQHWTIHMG
UniProt Q8TAM2: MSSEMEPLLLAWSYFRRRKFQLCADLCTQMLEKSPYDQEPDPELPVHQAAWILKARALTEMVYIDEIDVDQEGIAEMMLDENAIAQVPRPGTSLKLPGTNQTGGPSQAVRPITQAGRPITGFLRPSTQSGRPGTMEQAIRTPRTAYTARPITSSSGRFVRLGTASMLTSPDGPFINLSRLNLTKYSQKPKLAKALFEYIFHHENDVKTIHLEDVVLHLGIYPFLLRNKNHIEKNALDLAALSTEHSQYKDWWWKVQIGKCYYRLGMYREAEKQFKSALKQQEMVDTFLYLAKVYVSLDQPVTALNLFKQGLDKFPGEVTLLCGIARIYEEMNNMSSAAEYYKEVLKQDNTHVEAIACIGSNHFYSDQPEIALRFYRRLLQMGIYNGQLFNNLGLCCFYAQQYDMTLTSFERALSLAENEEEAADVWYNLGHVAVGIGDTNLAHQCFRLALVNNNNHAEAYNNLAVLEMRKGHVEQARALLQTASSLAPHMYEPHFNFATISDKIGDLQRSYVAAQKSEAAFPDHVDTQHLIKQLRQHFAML
UniProt Q8TF46, whole entry: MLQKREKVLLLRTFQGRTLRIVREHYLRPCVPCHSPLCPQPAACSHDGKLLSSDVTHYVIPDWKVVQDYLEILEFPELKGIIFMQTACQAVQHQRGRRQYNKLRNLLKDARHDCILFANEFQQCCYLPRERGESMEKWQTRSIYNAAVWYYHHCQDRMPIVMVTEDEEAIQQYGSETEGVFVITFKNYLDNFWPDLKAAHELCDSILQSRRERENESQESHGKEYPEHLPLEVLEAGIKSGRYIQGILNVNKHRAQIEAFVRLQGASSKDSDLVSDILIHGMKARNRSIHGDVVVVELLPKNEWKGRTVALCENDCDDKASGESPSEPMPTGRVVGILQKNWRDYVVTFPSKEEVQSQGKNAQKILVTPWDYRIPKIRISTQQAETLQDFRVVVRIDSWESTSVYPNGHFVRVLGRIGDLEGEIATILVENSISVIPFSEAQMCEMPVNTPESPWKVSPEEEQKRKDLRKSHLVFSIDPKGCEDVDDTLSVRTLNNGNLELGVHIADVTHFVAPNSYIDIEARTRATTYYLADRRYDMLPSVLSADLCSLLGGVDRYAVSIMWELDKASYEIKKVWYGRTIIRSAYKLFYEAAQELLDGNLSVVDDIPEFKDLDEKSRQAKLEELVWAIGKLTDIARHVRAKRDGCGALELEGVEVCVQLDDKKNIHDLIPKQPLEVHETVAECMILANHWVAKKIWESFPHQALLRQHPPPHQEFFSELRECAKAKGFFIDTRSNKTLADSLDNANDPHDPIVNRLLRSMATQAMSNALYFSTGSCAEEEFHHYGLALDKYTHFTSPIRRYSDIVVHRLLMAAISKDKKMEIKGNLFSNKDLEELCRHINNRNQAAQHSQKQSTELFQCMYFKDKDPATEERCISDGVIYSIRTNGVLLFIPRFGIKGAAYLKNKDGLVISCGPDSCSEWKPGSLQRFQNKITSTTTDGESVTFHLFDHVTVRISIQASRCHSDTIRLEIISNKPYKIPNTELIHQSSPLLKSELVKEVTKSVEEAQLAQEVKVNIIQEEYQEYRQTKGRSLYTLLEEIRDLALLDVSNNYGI
UniProt Q8WUH2: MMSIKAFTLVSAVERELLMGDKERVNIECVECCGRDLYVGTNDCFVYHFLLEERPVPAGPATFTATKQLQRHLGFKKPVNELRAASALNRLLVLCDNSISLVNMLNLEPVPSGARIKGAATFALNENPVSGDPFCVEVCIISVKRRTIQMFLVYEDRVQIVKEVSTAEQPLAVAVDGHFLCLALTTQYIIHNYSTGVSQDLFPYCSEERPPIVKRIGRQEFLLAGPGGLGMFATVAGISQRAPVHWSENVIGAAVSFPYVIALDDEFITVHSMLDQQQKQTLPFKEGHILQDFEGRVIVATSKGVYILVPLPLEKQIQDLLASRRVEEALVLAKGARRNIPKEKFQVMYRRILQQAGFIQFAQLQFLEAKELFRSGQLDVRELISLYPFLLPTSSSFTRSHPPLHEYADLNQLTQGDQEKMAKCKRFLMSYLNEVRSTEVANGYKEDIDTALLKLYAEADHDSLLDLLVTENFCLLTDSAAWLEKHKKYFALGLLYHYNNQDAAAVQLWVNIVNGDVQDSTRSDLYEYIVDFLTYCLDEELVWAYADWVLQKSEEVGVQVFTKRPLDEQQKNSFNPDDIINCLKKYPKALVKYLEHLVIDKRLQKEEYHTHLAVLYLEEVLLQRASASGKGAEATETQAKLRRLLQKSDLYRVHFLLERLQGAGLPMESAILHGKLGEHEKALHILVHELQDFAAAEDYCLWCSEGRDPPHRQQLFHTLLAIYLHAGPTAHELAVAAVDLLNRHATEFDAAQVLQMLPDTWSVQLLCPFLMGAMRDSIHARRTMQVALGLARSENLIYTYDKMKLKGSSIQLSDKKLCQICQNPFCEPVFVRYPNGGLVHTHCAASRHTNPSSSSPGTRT
UniProt Q92597: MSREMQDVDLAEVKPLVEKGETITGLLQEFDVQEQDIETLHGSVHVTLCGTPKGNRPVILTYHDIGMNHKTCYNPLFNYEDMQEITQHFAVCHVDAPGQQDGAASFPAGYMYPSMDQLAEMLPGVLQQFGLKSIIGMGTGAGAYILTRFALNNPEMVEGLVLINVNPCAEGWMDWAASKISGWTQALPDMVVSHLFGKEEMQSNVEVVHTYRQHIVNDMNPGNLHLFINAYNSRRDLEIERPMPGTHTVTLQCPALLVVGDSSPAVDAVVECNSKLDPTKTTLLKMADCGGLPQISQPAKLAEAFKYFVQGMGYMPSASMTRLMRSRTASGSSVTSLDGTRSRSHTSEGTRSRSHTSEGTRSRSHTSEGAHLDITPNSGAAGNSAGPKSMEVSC
UniProt Q8TE68: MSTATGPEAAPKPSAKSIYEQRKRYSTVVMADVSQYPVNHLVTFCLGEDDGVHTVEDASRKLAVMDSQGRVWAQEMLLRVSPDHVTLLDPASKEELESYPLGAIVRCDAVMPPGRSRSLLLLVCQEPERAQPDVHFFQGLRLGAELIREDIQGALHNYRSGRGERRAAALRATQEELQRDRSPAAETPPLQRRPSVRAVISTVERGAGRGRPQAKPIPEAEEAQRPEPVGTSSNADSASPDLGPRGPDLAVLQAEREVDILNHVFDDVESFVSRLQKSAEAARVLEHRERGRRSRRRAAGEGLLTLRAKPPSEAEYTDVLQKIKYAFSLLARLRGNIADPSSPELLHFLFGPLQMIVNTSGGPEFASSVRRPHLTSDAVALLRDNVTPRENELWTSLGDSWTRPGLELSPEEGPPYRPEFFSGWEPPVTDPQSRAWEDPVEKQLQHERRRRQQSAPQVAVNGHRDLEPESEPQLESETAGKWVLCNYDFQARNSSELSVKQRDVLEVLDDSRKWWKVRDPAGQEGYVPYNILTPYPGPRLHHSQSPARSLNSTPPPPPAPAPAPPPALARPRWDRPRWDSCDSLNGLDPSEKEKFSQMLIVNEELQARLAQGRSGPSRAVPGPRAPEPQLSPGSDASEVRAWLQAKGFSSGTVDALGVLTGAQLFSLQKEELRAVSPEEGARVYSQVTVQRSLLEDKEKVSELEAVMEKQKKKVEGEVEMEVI
UniProt Q92503: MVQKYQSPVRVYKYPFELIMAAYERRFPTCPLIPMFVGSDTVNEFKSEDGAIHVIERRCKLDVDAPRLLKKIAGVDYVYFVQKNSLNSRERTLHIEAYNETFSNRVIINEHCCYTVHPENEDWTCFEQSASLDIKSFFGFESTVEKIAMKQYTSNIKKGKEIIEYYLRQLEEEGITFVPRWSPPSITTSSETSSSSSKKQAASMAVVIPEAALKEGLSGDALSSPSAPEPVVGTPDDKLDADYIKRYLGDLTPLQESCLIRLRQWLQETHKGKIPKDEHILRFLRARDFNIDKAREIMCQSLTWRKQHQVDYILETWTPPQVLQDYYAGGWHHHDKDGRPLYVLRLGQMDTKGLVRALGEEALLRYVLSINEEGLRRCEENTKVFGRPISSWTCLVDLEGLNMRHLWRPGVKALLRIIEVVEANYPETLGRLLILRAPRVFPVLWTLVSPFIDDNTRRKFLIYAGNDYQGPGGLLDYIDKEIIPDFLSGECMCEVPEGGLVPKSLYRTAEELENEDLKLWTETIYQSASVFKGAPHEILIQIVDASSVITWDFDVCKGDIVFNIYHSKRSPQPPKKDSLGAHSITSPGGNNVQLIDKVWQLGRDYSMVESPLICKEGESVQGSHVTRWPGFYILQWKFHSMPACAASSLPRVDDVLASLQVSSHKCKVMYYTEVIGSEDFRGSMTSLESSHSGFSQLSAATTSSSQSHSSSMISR
UniProt Q92562: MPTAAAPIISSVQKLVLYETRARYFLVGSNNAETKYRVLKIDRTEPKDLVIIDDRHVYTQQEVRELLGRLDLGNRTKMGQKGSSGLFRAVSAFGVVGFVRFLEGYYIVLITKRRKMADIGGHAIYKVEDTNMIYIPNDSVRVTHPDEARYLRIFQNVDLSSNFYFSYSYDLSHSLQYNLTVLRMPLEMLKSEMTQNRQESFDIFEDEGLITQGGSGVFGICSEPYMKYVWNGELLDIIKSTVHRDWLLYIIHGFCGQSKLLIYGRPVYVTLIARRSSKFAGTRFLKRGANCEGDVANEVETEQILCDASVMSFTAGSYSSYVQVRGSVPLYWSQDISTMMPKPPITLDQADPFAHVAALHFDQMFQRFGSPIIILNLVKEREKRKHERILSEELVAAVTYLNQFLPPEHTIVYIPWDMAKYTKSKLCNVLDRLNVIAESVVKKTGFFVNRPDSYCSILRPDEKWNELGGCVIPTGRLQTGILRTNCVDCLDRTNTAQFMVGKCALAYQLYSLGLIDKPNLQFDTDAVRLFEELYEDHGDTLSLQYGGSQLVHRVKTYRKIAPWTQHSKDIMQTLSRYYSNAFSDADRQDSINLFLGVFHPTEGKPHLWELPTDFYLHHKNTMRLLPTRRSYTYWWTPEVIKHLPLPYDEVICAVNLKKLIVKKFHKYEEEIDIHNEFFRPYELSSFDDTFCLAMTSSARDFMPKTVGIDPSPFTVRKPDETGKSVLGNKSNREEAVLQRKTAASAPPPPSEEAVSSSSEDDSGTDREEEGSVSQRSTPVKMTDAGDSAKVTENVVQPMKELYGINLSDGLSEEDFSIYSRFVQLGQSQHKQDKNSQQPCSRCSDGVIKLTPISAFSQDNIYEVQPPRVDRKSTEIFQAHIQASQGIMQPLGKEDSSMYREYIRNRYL

Some of the results follow. Small differences around the control level are noise.

Compound in this experiment: Cc1nc(Nc2ncc(C(=O)Nc3c(C)cccc3Cl)s2)cc(N2CCN(CCO)CC2)n1 [dasatinib]
In words: log2 fold change of tryptic peptide abundance, ligand vs vehicle (limited proteolysis) (log2 ratio); higher = more trypsin-susceptible (destabilized). To be noted: ligand concentration: 5 uM; sample: K562 cleared lysate.
Regarding “UniProt Q8WV37 (peptide sequence: EKPYECNEHSK, peptide start residue: 200)”, the log2 fold change came to 0.392.
The figure for “UniProt Q8TAM2 (peptide sequence: SEAAFPDHVDTQHLIK, peptide start residue: 517)” is 0.0179; for “DIS3L (peptide sequence: DYVVTFPSKEEVQSQGK, peptide start residue: 344) (UniProt Q8TF46)” it is -0.625; for “TGFBRAP1 (peptide sequence: AFTLVSAVER, peptide start residue: 6) (UniProt Q8WUH2)” it is -0.409.
The same measure for “NDRG1 (peptide sequence: SHTSEGTR, peptide start residue: 344) (UniProt Q92597)”: 0.283; for “EPS8L1 (peptide sequence: VSELEAVMEK, peptide start residue: 700) (UniProt Q8TE68)”: 0.433.
Consider “SEC14L1 (peptide sequence: GKIPKDEHILR, peptide start residue: 272) (UniProt Q92503)”, for which the log2 fold change is -0.205.
The same measure for “FIG4 (peptide sequence: NSQQPCSRCSDGVIK, peptide start residue: 834) (UniProt Q92562)”: -0.209.
